# In PubChem BioAssay (EPA / NIEHS):
# Chains of the proteins cited; added tags and fusions are not shown.
# UniProt P04637, whole entry, looked up: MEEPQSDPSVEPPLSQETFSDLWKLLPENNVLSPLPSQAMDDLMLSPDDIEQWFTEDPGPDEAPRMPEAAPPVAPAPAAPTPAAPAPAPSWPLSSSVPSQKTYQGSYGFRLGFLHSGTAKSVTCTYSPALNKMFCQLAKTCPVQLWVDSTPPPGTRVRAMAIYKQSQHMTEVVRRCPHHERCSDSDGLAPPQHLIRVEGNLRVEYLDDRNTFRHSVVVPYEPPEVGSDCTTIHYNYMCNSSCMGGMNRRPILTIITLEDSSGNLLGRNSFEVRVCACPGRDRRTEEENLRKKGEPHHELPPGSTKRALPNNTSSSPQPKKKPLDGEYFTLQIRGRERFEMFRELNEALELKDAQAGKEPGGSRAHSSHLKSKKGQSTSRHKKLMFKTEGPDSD
# Several values for one entry are separate records, joined by “and”; a condition that tells them apart may be missing. Equal values may be shown once. The shares of active, inactive and inconclusive entries below differ from those in the screen. Potencies of inconclusive entries are doubtful fits and often do not repeat. Activity calls are given as the source filed them. The calls were made as follows: active = hit-call score of the fitted dose curve at least 0.9, where 1 is the maximum; inconclusive = response in the unintended direction; inactive = score below 0.9.
# Legend:
# [1] = TOX21_p53_BLA_p3_viability: Viability Assessment in the Tox21 HCT-116 p53 Agonism Beta-lactamase Assay, Phase 3 (AID 2283593);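 also: cells exposed to compound for 16 h before reading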
# Procedure, shortened: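 HCT116 cells, 4000/well, dosed 5 h after plating by pin transfer (217-fold dilution from DMSO stock) and incubated 16 h at 37C, 5% CO2. Viability read as ATP luminescence with CellTiter-Glo after 30 min at room temperature.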
# [2] = TOX21_p53_BLA_p4_viability: Viability Assessment in the Tox21 HCT-116 p53 Agonism Beta-lactamase Assay, Phase 4 (AID 2283597);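 also: hits lower the luminescence signal meaning cytotoxicity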
# Procedure, shortened: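 4000 HCT116 cells per well; 5 h attachment; compounds from DMSO, 217-fold dilution; 16 h at 37C. Then CCF4-AM, 2 h RT, followed by CellTiter-Glo, 30 min RT, luminescence. Decrease = cytotoxicity.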
# [3] = TOX21_p53_BLA_p5_viability: Viability Assessment in the Tox21 HCT-116 p53 Agonism Beta-lactamase Assay, Phase 5 (AID 2283600)
# Procedure, shortened: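 Decreased CellTiter-Glo luminescence denotes lost viability. Exposure: 16 h at 37C, 5% CO2, with compounds from DMSO stocks diluted 217-fold in wells of 4000 cells.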
# [4] = target: Cellular tumor antigen p53 (Homo sapiens) (UniProt P04637); experiment: TOX21_p53_BLA_p5_ratio: Tox21 HCT-116 p53 Agonism Beta-lactamase Assay, Ratio, Phase 5 (AID 2283599)
# Procedure, shortened: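 HCT-116 p53-bla cells (4000/well) plated 5 h, dosed with compound (217-fold DMSO dilution) for 16 h at 37 C; CCF4-AM substrate 2 h at room temperature. Activity is the 460/530 nm emission ratio (405 nm excitation), fitted in gain-of-signal direction versus DMSO.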
# [5] = target: Cellular tumor antigen p53 (Homo sapiens) (UniProt P04637); experiment: TOX21_p53_BLA_p4_ratio: Tox21 HCT-116 p53 Agonism Beta-lactamase Assay, Ratio, Phase 4 (AID 2283601)
# Procedure, shortened: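 HCT-116 p53 beta-lactamase reporter cells (4000/well) preincubated 5 h, then compound (217-fold dilution of DMSO stock) for 16 h at 37C. CCF4-AM substrate added 2 h at room temperature; 460/530 nm emission ratio fitted upward versus DMSO.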
# [6] = system: SRY-box transcription factor 2 (SOX2) Protein Expression, Deisenroth Lab, SOX2 (gene 6657); experiment: CCTE_Deisenroth_DEVTOX-GLR_Endo_SOX2: CCTE's DevTox GLR-Endo Assay Evaluation of SRY-box transcription factor 2 (SOX2) Protein Expression, Deisenroth Lab (AID 2284412)
# Procedure, shortened: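 Endpoint is percent SOX2-positive cells (SOX2+ count/total cells) minus 0.2% DMSO control, from high-content imaging of fixed, nuclear-stained RUES2-GLR cells. Dosing twice at 24 h intervals over 48 h differentiation, 1 nM–200 uM in 10 points.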
compound,measurement,setting,value
CCc1c(C)[nH]c2c1C(=O)C(CN1CCOCC1)CC2 (stereo not drawn),AC50,[1],inconclusive: 10.3 µM
same,AC50,[2],inconclusive: 2.25 µM
same,AC50,[3],inconclusive: 10.3 µM
CN(C)CCC=C1c2ccccc2CSc2ccccc21,AC50,[1],inconclusive: 10.3 µM
same,AC50,[2],inconclusive: 10.3 µM
same,outcome,[4],inactive
same,AC50,[3],inconclusive: 7.94 µM
same,AC50,[5],active: 16.6 µM
NCCNCCO,AC50,[1],inconclusive: 87.8 µM
same,outcome,[2],inactive
same,AC50,[3],inconclusive: 46.5 µM
NCCNCCNCCN,AC50,[1],inconclusive: 9.84 nM and inconclusive: 23 µM
same,outcome,[2],inactive
same,AC50,[3],inconclusive: 45.6 µM
COC1=C(C(=O)O)N2C(=O)[C@@H](NC(=O)[C@H](N)C3=CCC=CC3)[C@H]2SC1,outcome,[1],inactive
same,AC50,[2],inconclusive: 0.0727 µM
same,AC50,[3],inconclusive: 23 µM
CCOC(=O)Cn1c(=O)sc2cccc(Cl)c21,outcome,[1],inactive
same,AC50,[2],inconclusive: 46.1 µM
same,outcome,[3],inactive
Nc1cccc2c1CN(C1CCC(=O)NC1=O)C2=O (stereo not drawn),AC50,[1],inconclusive: 0.00174 µM
same,AC50,[2],inconclusive: 23 µM
same,outcome,[4],inactive
same,AC50,[3],inconclusive: 23 µM
same,AC50,[6],inconclusive: 0.306 µM
CCOC(=O)c1ncn2c1CN(C)C(=O)c1cc(F)ccc1-2,outcome,[1],inactive
same,AC50,[2],inconclusive: 9.33 µM
same,AC50,[4],inconclusive: 23 µM
same,outcome,[3],inactive
same,AC50,[5],inconclusive: 23 µM
O=C(O)CCC(=O)OC[C@@H](NC(=O)C(Cl)Cl)[C@H](O)c1ccc([N+](=O)[O-])cc1,outcome,[1],inactive
same,AC50,[2],inconclusive: 3.1 µM
same,AC50,[4],inconclusive: 23 µM
same,AC50,[5],inconclusive: 23 µM
CC(=O)C1CCCCC1=O (stereo not drawn),AC50,[1],inconclusive: 11.5 µM
same,AC50,[2],inconclusive: 11 µM
same,AC50,[4],inconclusive: 71.2 µM
same,outcome,[3],inactive
same,AC50,[5],inconclusive: 73.5 µM
COc1cc2c(cc1OC)-c1cc3ccc(OC)c(OC)c3c[n+]1CC2,outcome,[1],inactive
same,outcome,[2],inactive
same,AC50,[4],inconclusive: 46.4 µM
same,AC50,[5],inconclusive: 46.4 µM

# A portion from further up, for reference:
compound,measurement,setting,value
CC(=O)C1CCCCC1=O (stereo not drawn),AC50,[5],inconclusive: 73.5 µM
COc1cc2c(cc1OC)-c1cc3ccc(OC)c(OC)c3c[n+]1CC2,outcome,[1],inactive
same,outcome,[2],inactive
